From the supplement of paper PMC7858590
± gives the standard deviation of the averaged measurements. In all, about 3,800 compounds were measured (“cell shape (eccentricity) Z-score vs DMSO control”: median about 1.1, lowest 2% from about -4.7 on). The list shows a part of the results. Starred links: 1 amine or outer side, 2 acyl side, 3 side chain; linkers in the order of their positions; H or OH if unused. Positions of bridges follow the written chain, without caps; N, C: chain ends. Non-standard residues stand in square brackets, D forms with d. Residues, ends and D or L forms follow the SMILES beside them. Chains are numbered I, II in the order given. Actinocin(1to9) = Cc1c2oc3c(C)ccc(C(=O)[*:2])c3nc-2c(C(=O)[*:1])c(N)c1=O; NMeV = CN[CH](C(=O)O)C(C)C; Sar = CNCC(=O)O

test system: human monocyte-derived macrophages (M0); test: cell shape (eccentricity) Z-score vs DMSO control; higher = more elongated, M2-like morphology; settings: 20 µM; 24 h; macrophage state: M0 (M-CSF)

SMILES | cell shape (Z-score)
COc1ccc2[nH]c(I)c(CCNC(C)=O)c2c1 | 4.27
CC1(C)CN=C(N2CCN(c3ncnc4sc5c(c34)CCCC5)CC2)S1 | 3.14
CC(C)(O)CCCC(C)(O)c1ccc(C(=O)O)cc1O (stereo not drawn) | 1.84
COC(=O)[C@H]1CC[C@H](OC(C)=O)[C@]2(C)CC[C@@H](C(C)C)[C@@H](OC(=O)/C=C/c3ccccc3)C12 (stereo partly drawn) | 2.65
Cn1cc(C2=C(c3ccc(Cl)cc3Cl)C(=O)NC2=O)c2ccccc21 | -0.822
CC(Cc1ccccc1)(NC(=O)CN)c1ccccc1 (stereo not drawn) | 2.31
Clc1ccc(C(Cn2ccnc2)OCc2ccsc2Cl)c(Cl)c1 (stereo not drawn) | 8.95
C=C(NC(=O)C(=C)NC(=O)c1csc(C2=N[C@H]3c4csc(n4)[C@H]4NC(=O)c5csc(n5)[C@H]([C@@](C)(O)[C@@H](C)O)NC(=O)[C@H]5CSC(=N5)C(=CC)NC(=O)[C@H]([C@@H](C)O)NC(=O)c5csc(n5)[C@]3(CC2)NC(=O)[C@H](C)NC(=O)C(=C)NC(=O)[C@H](C)NC(=O)[C@H](C(C)CC)N[C@@H]2C=Cc3c([C@H](C)O)cc(nc3[C@H]2O)C(=O)O[C@@H]4C)n1)C(N)=O (stereo partly drawn) | -6.13
C/C=C1/[C@H](O[C@@H]2O[C@H](CO)[C@@H](O)[C@H](O)[C@H]2O)OC=C(C(=O)OC)[C@H]1CC(=O)OCCc1ccc(O)cc1 | -0.322
COC(=O)C(C(CO)Cc1ccc(O)c(OC)c1)C(O)c1ccc(O)c(OC)c1 (stereo not drawn) | 2.77
CSCC1OC(n2cnc3c(=O)[nH]cnc32)C(O)C1O (stereo not drawn) | 1.09 ± 1.1
O=c1oc2ccccc2c(O)c1Cc1c(O)c2ccccc2oc1=O | 0.779
CC#CCOC(=O)c1c(C)nc2sc3c(c2c1N)CCC(O)C3 (stereo not drawn) | -0.105
Nc1ccccc1NC(=O)c1ccc(CNC(=O)OCc2cccnc2)cc1 | -10.6 ± 0.74
COc1cccc(OC)c1OCCNCC1COc2ccccc2O1 (stereo not drawn) | 2.21
c1ccc2sc(SN3CCOCC3)nc2c1 | 0.316
O=C(O)c1ccc(NCc2nc3cc4ccccc4cc3[nH]2)cc1 | 1.43
CC[C@H](C)C(=O)O[C@H]1CCC=C2C=C[C@H](C)[C@H](CC[C@@H]3C[C@@H](O)CC(=O)O3)[C@H]21 | 0.701
NC(=O)Cc1cccc(C(=O)c2ccccc2)c1N | 2
C[C@H]1COC2=C1C(=O)C(=O)c1c2ccc2c1CCCC2(C)C | 3.51
COc1cc(/C=C(\C#N)C(N)=O)cc(CSc2nc3ccccc3s2)c1O | 3.81
Cc1ccc2ccc3ccc(C)nc3c2n1 | 3.48
COc1ccccc1N1CCN(CC2CN3C(=O)N(C)c4ccccc4C3=N2)CC1 (stereo not drawn) | 0.841
COc1cc(/C=C/C(=O)N2CCC=CC2=O)cc(OC)c1OC | 4.86
COc1[nH]c2ccc(F)cc2c1C(=O)OCC1CCN(CCNS(C)(=O)=O)CC1 | 1.97
Cn1cnc2c(F)c(Nc3ccc(Br)cc3Cl)c(C(=O)NOCCO)cc21 | 0.153

SMILES | cell shape (Z-score)
CCCCOC(=O)c1ccc(N)cc1 | 6.92
NCCCCCCNS(=O)(=O)c1ccc2c(Cl)cccc2c1 | -0.418
Cc1cccc(C)c1OCC(=O)N[C@@H](Cc1ccccc1)[C@@H](O)C[C@H](Cc1ccccc1)NC(=O)[C@H](C(C)C)N1CCCNC1=O | 0.149
CC(C)COCC(CN(Cc1ccccc1)c1ccccc1)N1CCCC1 (stereo not drawn) | 0.498
CC(C)c1ccc(C(=O)c2cccs2)c(SCCCCCCCCN(C)C)n1 | 0.0629
O=c1c(-c2ccc(O)cc2)coc2c(C3O[C@H](CO)[C@@H](O)[C@H](O)[C@H]3O)c(O)ccc12 (stereo partly drawn) | 1.95
C[C@@H]1CC[C@]2(C(=O)O[C@@H]3O[C@H](CO)[C@@H](O)[C@H](O)[C@H]3O)CC[C@]3(C(=O)O)C(=CCC4[C@@]5(C)CC[C@H](OC6OC[C@@H](O)[C@H](O)[C@H]6O)C(C)(C)C5CC[C@]43C)C2[C@H]1C (stereo partly drawn) | 0.774
CC(=O)O[C@H]1CC[C@@]2(C)C(C[C@@H](OC(C)=O)[C@]3(C)C2CC[C@@]2(C)[C@H](c4ccoc4)OC(=O)[C@H]4O[C@]423)C1(C)C (stereo partly drawn) | -2.07
NS(=O)(=O)c1cc2c(cc1Cl)N=CNS2(=O)=O | 2.11
CC1CCC(O)C2C=CC(C)(O)C(C)(C(=O)CCO)C12 (stereo not drawn) | 0.182
C=C1C(=O)O[C@H]2[C@H]1[C@@H](OC(=O)C(C)CO)C[C@@]1(C)[C@H](O)CCC(=O)[C@H]21 (stereo partly drawn) | 1.16
C=CC1CN(C=O)CCC1CCC(=O)c1ccnc2ccccc12 (stereo not drawn) | 0.457
CCn1c(=O)[nH]c2cc(Cl)c(Cl)cc21 | 4.06
C=C(Oc1cccc(C(=O)O)c1)C(=O)O | -2.01 ± 5.5
Cc1cc(C(C)Nc2ccccc2)c2nc(N3CCOCC3)cc(=O)n2c1 (stereo not drawn) | 3.96
COc1cc(C2Oc3c(O)ccc([C@@H]4Oc5cc(O)cc(O)c5C(=O)[C@H]4O)c3C2CO)ccc1O (stereo partly drawn) | 0.851
CC(=O)O[C@H]1C[C@@H](O)C(C)(C)C2C[C@@H](OC(C)=O)[C@]3(C)C(CC[C@@]4(C)[C@H](c5ccoc5)OC(=O)C5OC543)[C@]21C (stereo partly drawn) | -2.78
COC(=O)C1=CO[C@@H](O[C@@H]2O[C@H](CO)[C@@H](O)[C@H](O)[C@H]2O)[C@H]2[C@@H]1[C@H](OC(C)=O)C[C@]2(C)O | 2.06 ± 0.066
NCC(O)(CS(=O)(=O)O)c1ccc(Cl)cc1 (stereo not drawn) | 1.44
COc1ccc2oc(-c3ccccc3)c(OC)c(=O)c2c1 | 4.37
COc1ccc2[nH]c(-c3ccccc3)c(CCNC(C)=O)c2c1 | 0.107
Nc1nc(N)nc(-c2cc(Cl)ccc2Cl)n1 | -0.761
C#C[C@]1(O)CCC2C3CCC4=Cc5oncc5C[C@]4(C)C3CC[C@@]21C (stereo partly drawn) | 3.49
C[C@H]1CC2C3CCC4=CC(=O)C=C[C@]4(C)[C@@]3(F)[C@@H](O)C[C@]2(C)[C@@]1(O)C(=O)CO (stereo partly drawn) | 0.526
COc1ccc([C@H]2OC[C@H]3[C@@H]2CO[C@@H]3c2ccc(O[C@@H]3O[C@H](CO)C(O)[C@H](O)[C@H]3O)c(OC)c2)cc1OC (stereo partly drawn) | 2.29
O=C1C[C@@H](c2ccc(O)cc2)Oc2cc(O)c([C@@H]3O[C@H](CO)[C@@H](O)[C@H](O)[C@H]3O)c(O)c21 | 1.77

SMILES | cell shape (Z-score)
Cc1c(C(N)=O)cc([N+](=O)[O-])cc1[N+](=O)[O-] | 8.1
COC1=CC(=O)OC1C(O)C(O)C(OC(C)=O)c1ccccc1 (stereo not drawn) | -0.0114
CC[C@H](C)/C=C(C)/C=C/C(=O)Cc1cc(O)c(C)c(O)c1C=O | -1.16
Cc1c2oc3c(C)ccc(C(=O)OC(C)C4NC(=O)C(C(C)C)N(C)C(=O)CN(C)C(=O)C5CCCN5C(=O)C(C(C)C)NC4=O)c3nc-2c(C(=O)OC(C)C2NC(=O)C(C(C)C)N(C)C(=O)CN(C)C(=O)C3CCCN3C(=O)C(C(C)C)NC2=O)c(N)c1=O (stereo not drawn) (I: cyclo([Sar][NMeV]TVP) / II: cyclo([Sar][NMeV]TVP); linker I:3-II:3 via Actinocin(1to9); configuration not given here) | 2.12
CCCCCCN(CCCCCC)C(=O)Cc1c(-c2ccc(Cl)cc2)[nH]c2ccc(Cl)cc12 | 0.844
CN(C)C(=O)C(CCN1CCC(O)(c2ccc(Cl)cc2)CC1)(c1ccccc1)c1ccccc1 | 2.14
C[C@H](CO)N1C[C@H](C)[C@H](CN(C)CC2CC2)Oc2ccc(NS(=O)(=O)c3cn(C)cn3)cc2C1=O | 1.97
CC(C)c1cc(/C=C(\C#N)C(=O)NCCCc2ccccc2)cc(C(C)C)c1O | 2.76
CC(C)[C@H](CO)Nc1nc(Nc2cccc(Cl)c2)c2ncn(C(C)C)c2n1 | 3.21
C[C@@H]1CN(CC(=O)Nc2ccc3c(c2)Cc2cccc(-c4cc(=O)cc(N5CCOCC5)o4)c2S3)C[C@H](C)O1 | 4.22
CCn1c(=O)c2c(nc(/C=C/c3ccc(OC)c(OC)c3)n2C)n(CC)c1=O | 5.11
C/C=C(\C)C(=O)O[C@@H]1[C@@H](OC(C)=O)C2[C@@]3(C)CC[C@H](OC4CC(OC)C(OC5CC(OC)C(OC6CC(OC)C(OC7OC(C)C(OC8OC(CO)C(O)C(O)C8O)C(OC)C7O)C(C)O6)C(C)O5)C(C)O4)CC3=CC[C@@]2(O)[C@@]2(O)CC[C@H](C(C)=O)[C@@]12C (stereo partly drawn) | -2.05 ± 0.52
COc1c(O[C@@H]2O[C@H](CO[C@H]3OC[C@](O)(CO)[C@H]3O)[C@@H](O)[C@H](O)[C@H]2O)cc2occ(-c3ccc(O)cc3)c(=O)c2c1O | 0.461
CC(=O)OC1C(C)OC(OC2C(CO)OC(OC(=O)[C@]34CCC(C)(C)CC3C3=CCC5[C@@]6(C)CC[C@H](OC7OC(CO)C(OC8OC(CO)C(OC9OCC(O)C(O)C9O)C(O)C8O)C(O)C7O)[C@@](C)(CO)C6CC[C@@]5(C)[C@]3(C)CC4)C(OC3OC(C)C(O)C(O)C3O)C2O)C(O)C1O (stereo partly drawn) | 1.12
C=C1c2c(Cl)ccc(O)c2C(=O)C2C(=O)[C@]3(O)C(=O)C(C(N)=O)C(=O)[C@@H](N(C)C)[C@@H]3[C@@H](O)[C@H]12 (stereo partly drawn) | -1.63
N#CN/C(=N/CCCCCCOc1ccc(Cl)cc1)Nc1ccncc1 | -4.36
O=C(Nc1ccccc1)C(O)C(O)C(=O)Nc1ccccc1 (stereo not drawn) | 1.2
COc1c(O)cc2c(c1O)C(=O)CC(c1ccccc1)O2 (stereo not drawn) | 0.404
CC1(O)CC(=O)c2c(ccc3c2C(=O)c2cccc(O)c2C3=O)C1 (stereo not drawn) | -4.37
Cc1ccc([N+](=O)[O-])cc1S(=O)(=O)N(C)C | -0.141
CC(C)CC(NC(=O)N1CCCCCC1)C(=O)NC(Cc1cn(C)c2ccccc12)C(=O)NC(Cc1ccccn1)C(=O)O (stereo not drawn) | 0.497
COc1ccc(C2OCC3(O)C(c4ccc(OC)c(OC)c4)OCC23)cc1OC (stereo not drawn) | 1.67
COC(=O)C1=COC(OC2OC(CO)C(O)C(O)C2O)C2C1C(O)CC2(C)OC(C)=O (stereo not drawn) | 2.6
CC(=O)Nc1ncc([N+](=O)[O-])s1 | 0.475
CCCCCCCCC=CCCCCCCCC(=O)NCCO | 0.309
CN1c2cc3c(cc2N=C(c2ccc(C(=O)O)cc2)c2ccccc21)C(C)(C)CCC3(C)C | -2.76

By substructure, the entries above with a thiophene ring, fused or not (4)
SMILES | cell shape (Z-score)
CC1(C)CN=C(N2CCN(c3ncnc4sc5c(c34)CCCC5)CC2)S1 | 3.14
Clc1ccc(C(Cn2ccnc2)OCc2ccsc2Cl)c(Cl)c1 (stereo not drawn) | 8.95
CC#CCOC(=O)c1c(C)nc2sc3c(c2c1N)CCC(O)C3 (stereo not drawn) | -0.105
CC(C)c1ccc(C(=O)c2cccs2)c(SCCCCCCCCN(C)C)n1 | 0.0629

A draw from above in order of formula weight, falling.
SMILES | cell shape (Z-score)
CC(=O)OC1C(C)OC(OC2C(CO)OC(OC(=O)[C@]34CCC(C)(C)CC3C3=CCC5[C@@]6(C)CC[C@H](OC7OC(CO)C(OC8OC(CO)C(OC9OCC(O)C(O)C9O)C(O)C8O)C(O)C7O)[C@@](C)(CO)C6CC[C@@]5(C)[C@]3(C)CC4)C(OC3OC(C)C(O)C(O)C3O)C2O)C(O)C1O (stereo partly drawn) | 1.12
Cc1c2oc3c(C)ccc(C(=O)OC(C)C4NC(=O)C(C(C)C)N(C)C(=O)CN(C)C(=O)C5CCCN5C(=O)C(C(C)C)NC4=O)c3nc-2c(C(=O)OC(C)C2NC(=O)C(C(C)C)N(C)C(=O)CN(C)C(=O)C3CCCN3C(=O)C(C(C)C)NC2=O)c(N)c1=O (stereo not drawn) (I: cyclo([Sar][NMeV]TVP) / II: cyclo([Sar][NMeV]TVP); linker I:3-II:3 via Actinocin(1to9); configuration not given here) | 2.12
CCCCCCCCC=CCCCCCCCC(=O)NCCO | 0.309
